Experimental data from patent publication US10022342B2, “Methods and compositions for treating multiple myeloma” (Ohio State Innovation Foundation, priority 2015, dated 2018).

Test system: human miRNAs
Assay: NanoString global miRNA expression in MM.1S cells
Assay type: cell-based
Conditions: 0.1 or 0.2 μM, 24 hours

CC(C)[C@H](C(=O)Nc1ccc(C(=O)NO)cc1)c1ccccc1 [AR-42, (S)-N-hydroxy-4-(3-methyl-2-phenylbutanamido)benzamide]
number of miRNAs differentially expressed: 51
number of miRNAs significantly down-regulated: 29
number of miRNAs up-regulated: 22
